Here are results for one sequence from patent publication US6030783, “Photo-potentiation of cisplatin chemotherapy” (Massachusetts Institute of Technology).

For the data set, the target named is T1, HMG domain B (of HMG1) (UniProt P63159).
T1 sequence (looked up, limits assumed): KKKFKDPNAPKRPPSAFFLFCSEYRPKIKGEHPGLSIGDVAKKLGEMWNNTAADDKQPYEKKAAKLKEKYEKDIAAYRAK
Briefly: EMSA. The following applies: 10-40 equiv protein; purified recombinant protein; protein details: expressed from pHB1 in E. coli BL21(DE3); label: 5'-32P; variant of 15Pt/15B cisplatin-modified 15-bp duplex. A general note: In EMSA bound probe runs differently from free probe, usually more slowly.

Negatives hold for the conditions tested. Tags and fusion partners may be left off the protein sequences shown.

Consider “CCTCTCTGGTTCTTC (double strand) [unplatinated 15-bp duplex]”, for which the binding result was “no binding”.
